Results deposited as PubChem BioAssay AID1224830 (NIAID, 2016)
In all, the deposit lists about 18,000 reagents; this is a random part of them. Over the whole deposit, about 2,900 (16%) got an active call. 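Calls are made per well; low scores hint the gene aids the LPS response, high scores that it dampens it.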 Repeated entries: four replicate wells of each siRNA pool.

Purpose: 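Regulators of TLR4 signalling towards TNF-alpha in macrophage-like cells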 (primary screen)
Cells: human THP-1 monocytic leukaemia cells, TNF dual-luciferase reporter clone, PMA-differentiated to macrophage-like cells
Reagent: siRNA pool against human genes, 50 nM
Timing: LPS for 4 h, given about 3 days after siRNA transfection
Conditions: bacterial LPS (TLR4 ligand), 10 ng/ml
Measurement: 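Ratio of firefly to renilla light, scaled to the plate median and expressed as a robust z-score per replicate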
Scale: TNF reporter robust z-score: higher = stronger TNF reporter response to LPS
Rule for the call: 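Each well counts as active if its z-score is over 2.8 or under -1.5; controls are left without a call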

With knock-down of SIX6, the screen gave TNF reporter robust z-score 0.06; inactive.
Against SIX6, the values are TNF reporter robust z-score 0.17; inactive.
Knock-down of SIX6 resulted in: TNF reporter robust z-score -0.38; inactive.
For SIX6, the entry reads TNF reporter robust z-score -0.07; inactive.
Against N4BP2L2, the entry reads TNF reporter robust z-score -0.78; inactive.
Against N4BP2L2, the entry reads TNF reporter robust z-score -0.83; inactive.
For N4BP2L2, the values are TNF reporter robust z-score 3.71; active.
Silencing of N4BP2L2 gave: TNF reporter robust z-score -0.48; inactive.
With knock-down of TMEM117 the results were TNF reporter robust z-score -0.19; inactive.
Depletion of TMEM117 gave: TNF reporter robust z-score 1.19; inactive.
Silencing of TMEM117 resulted in: TNF reporter robust z-score 0.06; inactive.
Against TMEM117 the deposit lists TNF reporter robust z-score -0.36; inactive.
Against ATP5MF, the entry reads TNF reporter robust z-score -0.23; inactive.
Silencing of ATP5MF came out at: TNF reporter robust z-score 0.48; inactive.
Depletion of ATP5MF resulted in: TNF reporter robust z-score -0.49; inactive.
FAM90A1 scored TNF reporter robust z-score -0.21; inactive.
FAM90A1 scored TNF reporter robust z-score -0.07; inactive.
Against FAM90A1, the entry reads TNF reporter robust z-score -0.11; inactive.
Against FAM90A1, the values are TNF reporter robust z-score 0.42; inactive.

Entries listed above marked active:
N4BP2L2: TNF reporter robust z-score = 3.71; activity call = active
